Assay results reported in patent US20200010567A1.
These are yes or no findings as the source states them, for the method shown. Some results given as binding are weak or reduced against the parent protein; the word gives no strength.

Protein sequences, listed by entry. Tags and fused reporters are not part of them. Lines headed by an entry give the natural chain unless they say otherwise; changes in a name come on top. Residues count along the entry.
UniProt P02769, residues 25-607: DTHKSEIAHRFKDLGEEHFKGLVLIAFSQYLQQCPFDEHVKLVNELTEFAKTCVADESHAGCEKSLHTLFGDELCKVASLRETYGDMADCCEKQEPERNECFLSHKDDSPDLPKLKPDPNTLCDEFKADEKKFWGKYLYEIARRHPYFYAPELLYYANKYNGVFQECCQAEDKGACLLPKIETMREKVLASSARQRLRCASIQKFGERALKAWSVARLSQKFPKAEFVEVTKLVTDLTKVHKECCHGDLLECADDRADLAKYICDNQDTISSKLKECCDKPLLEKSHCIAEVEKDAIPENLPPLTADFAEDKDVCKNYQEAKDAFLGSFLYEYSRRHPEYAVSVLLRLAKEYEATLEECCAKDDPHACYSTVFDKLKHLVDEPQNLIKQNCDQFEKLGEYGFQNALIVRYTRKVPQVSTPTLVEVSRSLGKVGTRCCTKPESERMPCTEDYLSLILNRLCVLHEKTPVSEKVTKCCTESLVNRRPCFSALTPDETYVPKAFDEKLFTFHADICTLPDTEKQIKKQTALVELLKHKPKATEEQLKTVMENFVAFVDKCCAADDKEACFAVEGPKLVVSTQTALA
UniProt P05067, residues 18-770: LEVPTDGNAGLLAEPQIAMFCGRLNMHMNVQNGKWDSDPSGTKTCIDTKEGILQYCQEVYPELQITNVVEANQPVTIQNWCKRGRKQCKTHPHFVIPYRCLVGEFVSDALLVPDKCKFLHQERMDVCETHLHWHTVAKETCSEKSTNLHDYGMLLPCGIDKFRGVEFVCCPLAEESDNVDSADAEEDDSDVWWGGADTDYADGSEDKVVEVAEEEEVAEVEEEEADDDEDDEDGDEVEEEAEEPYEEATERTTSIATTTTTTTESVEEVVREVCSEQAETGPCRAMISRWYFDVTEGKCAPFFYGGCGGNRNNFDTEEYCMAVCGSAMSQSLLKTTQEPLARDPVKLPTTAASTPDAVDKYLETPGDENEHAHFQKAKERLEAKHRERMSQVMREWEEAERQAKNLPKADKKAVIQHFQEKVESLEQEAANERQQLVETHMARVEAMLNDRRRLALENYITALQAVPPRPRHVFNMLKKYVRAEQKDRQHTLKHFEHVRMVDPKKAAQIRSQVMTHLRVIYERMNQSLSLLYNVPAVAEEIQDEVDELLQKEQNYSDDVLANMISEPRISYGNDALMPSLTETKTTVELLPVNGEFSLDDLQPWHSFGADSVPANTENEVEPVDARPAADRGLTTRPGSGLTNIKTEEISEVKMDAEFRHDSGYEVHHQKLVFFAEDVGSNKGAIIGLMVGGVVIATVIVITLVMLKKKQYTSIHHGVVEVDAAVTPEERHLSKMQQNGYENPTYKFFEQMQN
UniProt P10636: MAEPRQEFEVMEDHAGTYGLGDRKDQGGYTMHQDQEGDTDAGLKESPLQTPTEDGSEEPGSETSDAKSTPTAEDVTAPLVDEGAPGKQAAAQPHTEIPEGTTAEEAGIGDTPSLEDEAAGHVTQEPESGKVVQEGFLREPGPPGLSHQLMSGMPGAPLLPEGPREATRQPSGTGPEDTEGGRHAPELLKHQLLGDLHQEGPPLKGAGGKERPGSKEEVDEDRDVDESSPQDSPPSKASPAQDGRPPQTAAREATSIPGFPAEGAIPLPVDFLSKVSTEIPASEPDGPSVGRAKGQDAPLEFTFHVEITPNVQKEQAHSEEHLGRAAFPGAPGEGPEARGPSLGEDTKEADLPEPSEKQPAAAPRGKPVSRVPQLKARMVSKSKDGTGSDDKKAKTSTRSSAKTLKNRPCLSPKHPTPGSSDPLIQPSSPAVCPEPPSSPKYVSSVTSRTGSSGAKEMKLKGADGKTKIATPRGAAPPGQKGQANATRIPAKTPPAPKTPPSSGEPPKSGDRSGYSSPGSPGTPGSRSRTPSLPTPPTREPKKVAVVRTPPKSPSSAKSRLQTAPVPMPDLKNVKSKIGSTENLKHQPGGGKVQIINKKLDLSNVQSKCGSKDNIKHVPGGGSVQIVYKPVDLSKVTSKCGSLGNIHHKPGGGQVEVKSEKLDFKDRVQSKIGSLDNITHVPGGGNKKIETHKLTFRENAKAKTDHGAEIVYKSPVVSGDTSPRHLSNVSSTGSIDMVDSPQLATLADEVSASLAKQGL
UniProt Q13148: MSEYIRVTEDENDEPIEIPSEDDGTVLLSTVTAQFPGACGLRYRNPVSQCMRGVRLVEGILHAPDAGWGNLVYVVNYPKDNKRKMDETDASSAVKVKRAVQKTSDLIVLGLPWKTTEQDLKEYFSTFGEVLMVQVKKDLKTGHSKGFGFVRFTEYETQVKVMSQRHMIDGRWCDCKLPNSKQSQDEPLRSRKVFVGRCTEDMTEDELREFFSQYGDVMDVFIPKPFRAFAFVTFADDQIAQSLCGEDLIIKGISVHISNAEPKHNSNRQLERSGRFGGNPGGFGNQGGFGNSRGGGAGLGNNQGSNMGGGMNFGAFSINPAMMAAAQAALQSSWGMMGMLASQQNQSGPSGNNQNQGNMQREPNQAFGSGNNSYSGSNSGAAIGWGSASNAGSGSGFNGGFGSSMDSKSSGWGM

Experiments:
GP20: H-(GP)20HHHHHH-NH2 = biological target: T1, GP20: H-(GP)20HHHHHH-NH2; assay: indirect ELISA, coated His-tagged peptide
T1 sequence (peptide, C-terminal amide): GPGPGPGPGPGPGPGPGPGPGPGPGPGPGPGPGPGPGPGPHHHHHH

GP10: H-(GP)10HHHHHH-NH2 = biological target: T2, GP10: H-(GP)10HHHHHH-NH2; assay: indirect ELISA, coated His-tagged peptide
T2 sequence (peptide, C-terminal amide): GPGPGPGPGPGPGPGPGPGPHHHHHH

[1] = biological target: BSA-coupled (GP)15 DPR protein peptide (bovine) (UniProt P02769); assay: indirect ELISA, coated BSA-coupled peptide
[2] = biological target: BSA-coupled (GP)15 DPR protein peptide (bovine) (UniProt P02769); assay: Western blot, BSA-coupled peptide
[3] = biological target: (GA)15: H-CHHHHHH(GA)15-OH; assay: indirect ELISA, coated uncoupled peptide
(GP)15: H-C(GP)15-OH = biological target: T3, (GP)15: H-C(GP)15-OH; assay: indirect ELISA, coated uncoupled peptide
T3 sequence (peptide): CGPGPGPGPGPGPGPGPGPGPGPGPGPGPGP

[4] = biological target: full-length amyloid precursor protein (UniProt P05067); assay: indirect ELISA, antibody at 20 nM, fold increase above median
Tau = Tau (UniProt P10636); assay: as above
[5] = biological target: transactive response DNA binding protein 43 (UniProt Q13148); assay: as above
BSA (bovine) = BSA (bovine) (UniProt P02769); assay: indirect ELISA, BSA coated as control, antibody titrated
PA20: H-(PA)20HHHHHH-NH2 = biological target: T4, PA20: H-(PA)20HHHHHH-NH2; assay: indirect ELISA, coated His-tagged peptide
T4 sequence (peptide, C-terminal amide): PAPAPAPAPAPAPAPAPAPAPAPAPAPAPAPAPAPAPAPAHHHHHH

PA10: H-(PA)10HHHHHH-NH2 = biological target: T5, PA10: H-(PA)10HHHHHH-NH2; assay: indirect ELISA, coated His-tagged peptide
T5 sequence (peptide, C-terminal amide): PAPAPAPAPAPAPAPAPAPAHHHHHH

PA5: H-(PA)5HHHHHH-NH2 = biological target: T6, PA5: H-(PA)5HHHHHH-NH2; assay: indirect ELISA, coated His-tagged peptide
T6 sequence (peptide, C-terminal amide): PAPAPAPAPAHHHHHH

[6] = biological target: BSA-coupled (PA)15 DPR protein peptide (bovine) (UniProt P02769); assay: indirect ELISA, coated BSA-coupled peptide
[7] = biological target: BSA-coupled (PA)15 DPR protein peptide (bovine) (UniProt P02769); assay: Western blot, BSA-coupled peptide
(PA)15: H-C(PA)15-OH = biological target: T7, (PA)15: H-C(PA)15-OH; assay: indirect ELISA, coated uncoupled peptide
T7 sequence (peptide): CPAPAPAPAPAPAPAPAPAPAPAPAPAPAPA

[8] = biological target: BSA-coupled (PR)15 DPR protein peptide (bovine) (UniProt P02769); assay: indirect ELISA, coated BSA-coupled peptide
[9] = biological target: BSA-coupled (GA)15 DPR protein peptide (bovine) (UniProt P02769); assay: Western blot, BSA-coupled peptide
[10] = biological target: BSA-coupled (PR)15 DPR protein peptide (bovine) (UniProt P02769); assay: Western blot, BSA-coupled peptide
(PR)15: H-C(PR)15-OH = biological target: T8, (PR)15: H-C(PR)15-OH; assay: indirect ELISA, coated uncoupled peptide
T8 sequence (peptide): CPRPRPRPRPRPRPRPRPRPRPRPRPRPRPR

B1: NI-308.46E9 (antibody, V domains shown)
VH: QVQLQESGPGLVKPSETLSLTCTVSGASISGSTYYWGWIRQPPGKGLEYIGRIYYSGSTYYNPSLKSRATISVDTSKNQLSLTLSSVTAADTAVYYCVRPFYAGSGNSPFDYWGQGTLVTVSS
VL: CEIVLTQSPATVSVSPGERATLSCRASQSVSTNLAWYQQKPGQPPRLLIYGASTRATGIPARFSGSGSGAEFTLTISSLQSEDFVVYYCQQYNNWPPAFGGGTKVEIK
binding (GP20: H-(GP)20HHHHHH-NH2): binds
binding (GP10: H-(GP)10HHHHHH-NH2): binds
binding [1]: binds
binding [2]: binds
binding [3]: binds
binding ((GP)15: H-C(GP)15-OH): binds
binding [4]: binds
binding (Tau): no binding (tested: 20 nM)
binding [5]: binds

B2: NI-308.4M1 (antibody, V domains shown)
VH: EVQLVETGGGVVQPGGSLRLSCEASGFTIGTYAMHWVRQFPGKGLDWVAVISFDGTTEYYTDAVKGRFTISRDNAKNTLYLQMNYLRGDDTAIYFCARDFTSSGETGSWTQVPDLWGQGTLVTVSS
VL: CEIVMTQSPATLSLSPGERATLSCRASQSVTKYLAWYQQKPGQAPRLLIYDVSYRAAGTPARFSGSGSGTDFTLTISSLEPEDFAVYYCHQRSSWPPVTFGGGTKVEIK
binding (BSA (bovine)): no binding (tested: about 4x10^5 pM (last point))
binding (PA20: H-(PA)20HHHHHH-NH2): binds
binding (PA10: H-(PA)10HHHHHH-NH2): binds
binding (PA5: H-(PA)5HHHHHH-NH2): binds
binding [6]: binds
binding [7]: binds
binding ((PA)15: H-C(PA)15-OH): binds

B3: NI-308.16C10 (antibody, V domains shown)
VH: EVQLVETGGGVVQPGMSLSLSCAATGFTFSSYGMHWVRQGPGKGPEWVAGIWYDGTNKYYGDSVTGRVTISRDNSKNTLFLQMINVRVEDTAVYYCVKDAERVQKWASYIMDVWGQGTTVTVSS
VL: EIVLTQSPGILSLSRGNRVALSCRASRSVNSSYLNWYQQKPGQAPRLLIYGASKRATGISDRFRGTGSGTDFTLTVARLEPEDIAVYYCQHYGAFGQGTKLEIK
binding [8]: binds
binding [9]: binds
binding [10]: binds
binding [3]: binds
binding ((PR)15: H-C(PR)15-OH): binds

B4: NI-308.12A3 (antibody, V domains shown)
VH: EVQLVETGGGLVQPGGSLRLSCVGSGFLFSDFEMDWVRQAPGKGLEWISYISGDGNIIYQTDSVKGRFTISRDNAKNSLFLQMDSLTVEDTAVYYCARDARENCGGDCYSTSFDFWGQGTLVTVSS
VL: DIQMTQSPDSLAVSLGERATINCKSSQSLLYTANNRNYLAWYQKKAGQPPKLLIHWASTRASGVPDRFSGSGSGTDFILTISSLQAEDVAVYFCQHYYNSPRTFGQGTKVEIK
binding [1]: binds
binding [2]: binds
binding [3]: binds
binding ((GP)15: H-C(GP)15-OH): binds
